These results are taken from PMC6202318.

By UniProt entry, the sequences of proteins in these tests, tags left out. Residues count along the entry.
UniProt P0A6F5: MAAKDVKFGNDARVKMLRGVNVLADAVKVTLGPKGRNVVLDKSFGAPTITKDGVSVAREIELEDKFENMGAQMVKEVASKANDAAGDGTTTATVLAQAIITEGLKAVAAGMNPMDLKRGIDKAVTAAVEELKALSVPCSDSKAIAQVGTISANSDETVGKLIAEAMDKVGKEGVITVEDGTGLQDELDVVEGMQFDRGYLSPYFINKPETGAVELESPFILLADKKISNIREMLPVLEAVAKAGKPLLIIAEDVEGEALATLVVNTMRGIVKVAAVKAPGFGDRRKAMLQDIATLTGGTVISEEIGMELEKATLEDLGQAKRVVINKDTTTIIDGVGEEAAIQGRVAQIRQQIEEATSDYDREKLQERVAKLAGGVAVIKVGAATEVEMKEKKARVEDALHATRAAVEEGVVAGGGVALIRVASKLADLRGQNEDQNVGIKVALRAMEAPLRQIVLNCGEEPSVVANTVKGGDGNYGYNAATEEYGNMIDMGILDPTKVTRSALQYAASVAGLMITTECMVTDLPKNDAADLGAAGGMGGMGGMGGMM
UniProt P50591, residues 91-281: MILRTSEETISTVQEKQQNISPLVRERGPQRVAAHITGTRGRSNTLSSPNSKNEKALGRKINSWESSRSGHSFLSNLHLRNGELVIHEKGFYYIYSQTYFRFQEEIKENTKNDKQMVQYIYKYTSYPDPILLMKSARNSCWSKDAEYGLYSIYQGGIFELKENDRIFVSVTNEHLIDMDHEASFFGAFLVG

No constants are given. Whether binding was seen depends on the method and setting. In cells and extracts the contact can be indirect. Some results given as binding are weak or reduced against the parent protein; the word gives no strength.

The target in this experiment is GroEL (E. coli) (UniProt P0A6F5). As to the kind of experiment: co-IP; lysates of E. coli strains incubated with anti-GroEL antibody at room temperature 1 h, protein A/G agarose resin 30 min, washed with 0.15 M NaCl, 20 mM Na2HPO4, pH 7.0; eluted with SDS-PAGE loading buffer; Western blot with anti-TRAIL and anti-GroEL antibodies. (Immunoblotting shows a protein as a band on a membrane.)

For the substance “recombinant human tumor necrosis factor-related apoptosis-inducing ligand (TRAIL) (from UniProt P50591 91-281)”, the binding entry is reported as “binds”.
